Results reported in the supplement of paper PMC10060354, “Discovery of a small molecule ligand of FRS2 that inhibits invasion and tumor growth” (Cellular Oncology, 2022).
Many values rest on one well or one pass, so single values are uncertain.

Chains of the proteins cited; added tags and fusions are not shown. Lines headed by an entry give the natural chain unless they say otherwise; changes in a name come on top.
UniProt Q8NI27: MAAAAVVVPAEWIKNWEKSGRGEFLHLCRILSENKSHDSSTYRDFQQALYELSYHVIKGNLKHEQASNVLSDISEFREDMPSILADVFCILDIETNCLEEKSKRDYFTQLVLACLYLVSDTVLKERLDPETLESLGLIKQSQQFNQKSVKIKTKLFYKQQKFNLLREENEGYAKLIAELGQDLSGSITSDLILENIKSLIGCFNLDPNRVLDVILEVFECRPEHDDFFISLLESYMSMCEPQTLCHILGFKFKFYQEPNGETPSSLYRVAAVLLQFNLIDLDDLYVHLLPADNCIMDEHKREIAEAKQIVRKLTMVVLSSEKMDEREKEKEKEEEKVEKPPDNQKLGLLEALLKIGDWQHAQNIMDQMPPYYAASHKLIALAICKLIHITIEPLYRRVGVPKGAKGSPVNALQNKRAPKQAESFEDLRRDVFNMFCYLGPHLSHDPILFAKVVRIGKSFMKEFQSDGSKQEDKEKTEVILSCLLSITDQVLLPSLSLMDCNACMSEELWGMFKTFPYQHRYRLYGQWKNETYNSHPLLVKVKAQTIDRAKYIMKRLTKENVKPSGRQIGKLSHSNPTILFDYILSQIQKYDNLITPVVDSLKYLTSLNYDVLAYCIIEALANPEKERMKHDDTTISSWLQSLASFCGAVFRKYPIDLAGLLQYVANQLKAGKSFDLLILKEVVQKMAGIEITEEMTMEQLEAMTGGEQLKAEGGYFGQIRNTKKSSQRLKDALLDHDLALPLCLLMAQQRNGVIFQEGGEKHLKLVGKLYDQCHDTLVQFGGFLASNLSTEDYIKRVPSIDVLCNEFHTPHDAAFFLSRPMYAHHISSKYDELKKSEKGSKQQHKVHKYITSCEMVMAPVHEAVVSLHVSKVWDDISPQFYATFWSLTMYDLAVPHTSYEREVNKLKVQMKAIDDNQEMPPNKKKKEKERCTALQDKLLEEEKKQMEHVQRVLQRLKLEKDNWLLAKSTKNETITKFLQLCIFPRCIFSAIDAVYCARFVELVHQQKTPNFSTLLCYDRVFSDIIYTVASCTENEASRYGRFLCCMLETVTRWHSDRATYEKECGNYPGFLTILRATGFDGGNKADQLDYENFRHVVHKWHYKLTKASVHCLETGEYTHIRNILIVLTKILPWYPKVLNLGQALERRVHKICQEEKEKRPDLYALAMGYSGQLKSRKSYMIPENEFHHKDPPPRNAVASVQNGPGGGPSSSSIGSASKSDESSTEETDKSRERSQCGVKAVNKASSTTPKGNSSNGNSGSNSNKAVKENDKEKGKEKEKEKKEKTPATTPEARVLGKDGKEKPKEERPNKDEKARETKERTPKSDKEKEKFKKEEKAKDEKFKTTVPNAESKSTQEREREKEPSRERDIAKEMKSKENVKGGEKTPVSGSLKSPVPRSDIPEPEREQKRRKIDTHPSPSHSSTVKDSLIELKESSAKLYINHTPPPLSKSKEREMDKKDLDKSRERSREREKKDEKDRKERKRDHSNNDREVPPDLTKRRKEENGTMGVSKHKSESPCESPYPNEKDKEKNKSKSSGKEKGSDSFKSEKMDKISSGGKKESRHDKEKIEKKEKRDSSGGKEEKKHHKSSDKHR
UniProt Q8N0Y7: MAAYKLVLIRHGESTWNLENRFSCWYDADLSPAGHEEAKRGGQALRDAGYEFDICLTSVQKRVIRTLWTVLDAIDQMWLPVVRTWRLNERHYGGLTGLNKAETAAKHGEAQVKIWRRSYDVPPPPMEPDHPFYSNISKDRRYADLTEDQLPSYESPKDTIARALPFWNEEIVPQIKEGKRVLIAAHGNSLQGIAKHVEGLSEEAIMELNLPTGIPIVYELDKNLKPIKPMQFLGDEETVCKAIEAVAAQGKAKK
UniProt Q9UPY5: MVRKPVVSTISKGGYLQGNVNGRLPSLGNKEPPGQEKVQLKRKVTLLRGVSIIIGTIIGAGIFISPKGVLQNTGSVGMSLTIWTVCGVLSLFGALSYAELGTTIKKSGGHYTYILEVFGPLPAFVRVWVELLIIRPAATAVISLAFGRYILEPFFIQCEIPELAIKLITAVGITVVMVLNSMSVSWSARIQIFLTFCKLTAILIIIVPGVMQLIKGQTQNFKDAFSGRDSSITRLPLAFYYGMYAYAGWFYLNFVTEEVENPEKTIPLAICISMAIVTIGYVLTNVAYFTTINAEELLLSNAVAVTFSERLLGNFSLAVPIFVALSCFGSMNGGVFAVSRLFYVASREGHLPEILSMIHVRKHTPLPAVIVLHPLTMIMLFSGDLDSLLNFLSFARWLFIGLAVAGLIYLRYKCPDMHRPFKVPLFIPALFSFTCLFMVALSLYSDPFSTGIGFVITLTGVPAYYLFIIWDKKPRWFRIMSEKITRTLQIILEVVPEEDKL
UniProt O43462: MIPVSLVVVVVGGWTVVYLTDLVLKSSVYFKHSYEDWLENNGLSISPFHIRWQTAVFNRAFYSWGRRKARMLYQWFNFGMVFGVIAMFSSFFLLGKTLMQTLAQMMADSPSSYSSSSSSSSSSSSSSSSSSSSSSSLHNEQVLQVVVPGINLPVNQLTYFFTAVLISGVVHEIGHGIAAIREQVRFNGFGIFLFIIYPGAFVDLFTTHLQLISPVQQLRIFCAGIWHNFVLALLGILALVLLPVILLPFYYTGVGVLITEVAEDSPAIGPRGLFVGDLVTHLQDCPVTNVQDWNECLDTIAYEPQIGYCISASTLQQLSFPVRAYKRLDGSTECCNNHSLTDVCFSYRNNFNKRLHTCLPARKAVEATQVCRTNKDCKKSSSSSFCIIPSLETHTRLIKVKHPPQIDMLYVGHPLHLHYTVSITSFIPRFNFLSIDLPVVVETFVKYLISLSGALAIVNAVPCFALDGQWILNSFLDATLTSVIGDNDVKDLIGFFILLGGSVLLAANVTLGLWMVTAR
UniProt P69849: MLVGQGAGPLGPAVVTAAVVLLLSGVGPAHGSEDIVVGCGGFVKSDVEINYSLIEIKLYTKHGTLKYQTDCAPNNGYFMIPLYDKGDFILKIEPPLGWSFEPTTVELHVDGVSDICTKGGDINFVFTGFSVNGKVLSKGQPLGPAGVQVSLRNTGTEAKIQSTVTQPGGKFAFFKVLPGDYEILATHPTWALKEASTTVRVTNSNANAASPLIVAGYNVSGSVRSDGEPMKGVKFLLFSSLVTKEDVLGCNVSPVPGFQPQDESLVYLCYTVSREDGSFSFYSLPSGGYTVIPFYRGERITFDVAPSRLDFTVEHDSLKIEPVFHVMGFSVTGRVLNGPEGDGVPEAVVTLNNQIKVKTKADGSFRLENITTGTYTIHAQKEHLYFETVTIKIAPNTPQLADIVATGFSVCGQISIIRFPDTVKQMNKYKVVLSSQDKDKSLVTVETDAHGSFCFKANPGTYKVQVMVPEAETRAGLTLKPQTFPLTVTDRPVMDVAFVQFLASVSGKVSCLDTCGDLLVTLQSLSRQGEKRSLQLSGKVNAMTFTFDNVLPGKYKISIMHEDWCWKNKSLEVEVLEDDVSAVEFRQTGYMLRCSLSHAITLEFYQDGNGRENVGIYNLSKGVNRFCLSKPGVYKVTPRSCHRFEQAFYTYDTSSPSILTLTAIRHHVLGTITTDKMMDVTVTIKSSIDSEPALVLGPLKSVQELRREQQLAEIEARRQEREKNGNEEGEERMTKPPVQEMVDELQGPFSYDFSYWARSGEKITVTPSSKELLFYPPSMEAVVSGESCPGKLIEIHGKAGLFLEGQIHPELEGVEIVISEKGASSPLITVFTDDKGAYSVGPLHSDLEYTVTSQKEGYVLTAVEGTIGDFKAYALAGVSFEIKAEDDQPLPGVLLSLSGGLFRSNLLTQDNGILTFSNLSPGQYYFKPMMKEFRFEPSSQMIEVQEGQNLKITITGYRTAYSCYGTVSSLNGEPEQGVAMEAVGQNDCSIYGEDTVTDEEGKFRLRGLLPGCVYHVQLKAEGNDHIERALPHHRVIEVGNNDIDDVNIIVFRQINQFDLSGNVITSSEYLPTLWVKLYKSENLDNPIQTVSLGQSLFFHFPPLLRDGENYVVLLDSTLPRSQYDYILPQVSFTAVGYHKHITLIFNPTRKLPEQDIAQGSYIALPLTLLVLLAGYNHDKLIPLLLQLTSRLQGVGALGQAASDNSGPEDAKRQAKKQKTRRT
UniProt Q13423: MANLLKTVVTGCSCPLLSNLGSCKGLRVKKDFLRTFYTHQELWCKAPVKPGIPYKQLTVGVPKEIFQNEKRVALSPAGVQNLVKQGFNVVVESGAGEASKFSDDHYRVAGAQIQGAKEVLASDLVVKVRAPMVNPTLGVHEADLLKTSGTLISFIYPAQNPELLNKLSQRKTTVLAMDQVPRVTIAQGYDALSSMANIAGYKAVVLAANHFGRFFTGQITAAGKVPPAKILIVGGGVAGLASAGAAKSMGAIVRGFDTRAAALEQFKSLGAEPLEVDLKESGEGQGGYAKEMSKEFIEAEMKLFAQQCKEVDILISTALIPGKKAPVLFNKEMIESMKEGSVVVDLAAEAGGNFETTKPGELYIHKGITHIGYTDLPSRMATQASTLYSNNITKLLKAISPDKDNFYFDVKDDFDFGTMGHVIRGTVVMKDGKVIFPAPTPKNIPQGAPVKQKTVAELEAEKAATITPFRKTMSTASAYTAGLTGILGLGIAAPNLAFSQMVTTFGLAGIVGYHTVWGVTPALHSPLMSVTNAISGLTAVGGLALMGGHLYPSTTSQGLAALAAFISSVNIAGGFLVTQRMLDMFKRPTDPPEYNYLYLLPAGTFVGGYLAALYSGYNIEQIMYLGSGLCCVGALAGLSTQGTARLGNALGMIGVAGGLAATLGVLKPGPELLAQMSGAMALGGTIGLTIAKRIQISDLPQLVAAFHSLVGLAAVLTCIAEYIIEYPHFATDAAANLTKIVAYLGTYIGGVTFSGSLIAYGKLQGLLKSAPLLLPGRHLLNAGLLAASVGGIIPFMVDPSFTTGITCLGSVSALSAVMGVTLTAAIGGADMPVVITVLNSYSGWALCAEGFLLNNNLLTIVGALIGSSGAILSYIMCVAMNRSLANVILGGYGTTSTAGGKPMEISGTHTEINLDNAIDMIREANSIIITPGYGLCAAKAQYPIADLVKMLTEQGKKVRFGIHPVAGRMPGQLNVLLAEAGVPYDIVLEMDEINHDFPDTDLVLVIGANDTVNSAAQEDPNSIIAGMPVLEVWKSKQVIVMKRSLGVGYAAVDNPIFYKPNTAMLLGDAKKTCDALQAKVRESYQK
UniProt Q9H1Z4: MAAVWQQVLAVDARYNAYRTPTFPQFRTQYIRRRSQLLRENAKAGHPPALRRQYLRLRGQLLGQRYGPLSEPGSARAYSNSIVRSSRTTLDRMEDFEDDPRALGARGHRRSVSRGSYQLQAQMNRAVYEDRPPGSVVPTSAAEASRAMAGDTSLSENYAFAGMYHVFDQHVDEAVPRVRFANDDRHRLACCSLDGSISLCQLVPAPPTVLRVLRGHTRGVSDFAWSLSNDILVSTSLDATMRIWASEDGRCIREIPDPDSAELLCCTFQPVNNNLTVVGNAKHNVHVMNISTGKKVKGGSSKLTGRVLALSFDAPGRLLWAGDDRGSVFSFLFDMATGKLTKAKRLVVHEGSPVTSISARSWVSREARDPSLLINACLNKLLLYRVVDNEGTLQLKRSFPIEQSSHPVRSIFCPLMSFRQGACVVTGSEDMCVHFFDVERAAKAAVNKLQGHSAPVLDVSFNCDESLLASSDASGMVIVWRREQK
UniProt Q14644: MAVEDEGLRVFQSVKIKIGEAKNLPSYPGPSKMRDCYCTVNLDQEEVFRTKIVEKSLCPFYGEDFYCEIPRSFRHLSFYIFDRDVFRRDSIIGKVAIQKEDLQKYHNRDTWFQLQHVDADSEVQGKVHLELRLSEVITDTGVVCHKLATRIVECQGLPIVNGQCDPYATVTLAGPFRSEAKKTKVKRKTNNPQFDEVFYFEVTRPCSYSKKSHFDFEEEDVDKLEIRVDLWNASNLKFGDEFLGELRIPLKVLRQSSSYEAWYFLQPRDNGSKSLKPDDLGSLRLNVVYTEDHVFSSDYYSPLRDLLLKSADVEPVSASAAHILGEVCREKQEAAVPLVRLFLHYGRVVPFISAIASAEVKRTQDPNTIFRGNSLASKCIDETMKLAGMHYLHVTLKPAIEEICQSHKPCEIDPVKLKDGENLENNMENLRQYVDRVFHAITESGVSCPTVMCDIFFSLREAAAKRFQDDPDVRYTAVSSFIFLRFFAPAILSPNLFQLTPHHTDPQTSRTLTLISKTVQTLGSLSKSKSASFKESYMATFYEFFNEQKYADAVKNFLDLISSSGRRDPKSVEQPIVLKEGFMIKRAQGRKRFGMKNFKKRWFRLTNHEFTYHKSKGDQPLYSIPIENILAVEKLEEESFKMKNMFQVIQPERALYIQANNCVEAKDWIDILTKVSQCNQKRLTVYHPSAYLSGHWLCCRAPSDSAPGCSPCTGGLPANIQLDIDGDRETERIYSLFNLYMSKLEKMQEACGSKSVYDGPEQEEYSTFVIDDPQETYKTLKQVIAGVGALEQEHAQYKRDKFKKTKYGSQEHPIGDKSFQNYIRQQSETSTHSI
A0A0U1RRE5, A0A0U1RRE5, UniProt A0A0U1RRE5, whole entry: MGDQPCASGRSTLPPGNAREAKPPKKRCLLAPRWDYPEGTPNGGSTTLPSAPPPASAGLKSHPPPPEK

Compound: [O-][N+](C(C1=C(C(O)=C2)NC(C(C=C3)=CC=C3Cl)C4C1C=CC4)=C2Cl)=O
Assay: melting temperature shift (compound 7 minus DMSO); higher = compound stabilises the protein
Conditions: 10 µM
Experimental: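 Thermal proteome profiling (TMT mass spectrometry) in intact DAOY medulloblastoma cells or DAOY lysates treated with 10 µM compound 7 or DMSO, heated at 10 temperatures from 40.5 to 73.8 °C for 3 min. Melting curves were fitted with the Bioconductor TPP package, and the melting point difference between compound and vehicle is reported per protein (single curve per condition).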

[1] = system: DAOY cell lysate, treatment time: 20 min, 4 °C
[2] = system: intact DAOY cells, treatment time: 90 min, 37 °C

UniProt P58215
melting temperature shift [1]: 0.73 °C
melting temperature shift [2]: 0.255 °C

METTL5 (UniProt Q9NRN9)
melting temperature shift [1]: -2.43 °C
melting temperature shift [2]: -1.77 °C

HSPA14 (UniProt Q0VDF9)
melting temperature shift [1]: -0.929 °C
melting temperature shift [2]: -0.957 °C

THOC2 (UniProt Q8NI27)
melting temperature shift [1]: -0.633 °C
melting temperature shift [2]: 1.12 °C

NUDT15 (UniProt Q9NV35)
melting temperature shift [2]: 0.748 °C

PRUNE (UniProt Q86TP1)
melting temperature shift [1]: 0.315 °C
melting temperature shift [2]: 0.838 °C

EPHB4 (UniProt P54760)
melting temperature shift [1]: 0.485 °C
melting temperature shift [2]: -0.813 °C

UniProt Q8N0Y7
melting temperature shift [2]: -1.99 °C

IREB2 (UniProt P48200)
melting temperature shift [1]: -0.19 °C
melting temperature shift [2]: 2.46 °C

CAPZB (UniProt P47756)
melting temperature shift [1]: -0.989 °C
melting temperature shift [2]: -0.0868 °C

UniProt O60512
melting temperature shift [2]: 0.595 °C

TNS3 (UniProt Q68CZ2)
melting temperature shift [1]: -0.919 °C
melting temperature shift [2]: 0.104 °C

NFAT5 (UniProt O94916)
melting temperature shift [1]: 1.51 °C

MIS12 (UniProt Q9H081)
melting temperature shift [1]: -2.56 °C

NEDD4 (UniProt P46934)
melting temperature shift [1]: 0.065 °C
melting temperature shift [2]: -1.3 °C

SLC12A2 (UniProt P55011)
melting temperature shift [1]: 0.898 °C
melting temperature shift [2]: -1.75 °C

NDRG1 (UniProt Q92597)
melting temperature shift [1]: 0.234 °C
melting temperature shift [2]: -0.645 °C

PUS7L (UniProt Q9H0K6)
melting temperature shift [1]: -0.335 °C
melting temperature shift [2]: -0.472 °C

UniProt Q96AH0
melting temperature shift [1]: -0.995 °C
melting temperature shift [2]: 0.955 °C

UniProt Q13950
melting temperature shift [2]: -1.27 °C

NDUFB6 (UniProt O95139)
melting temperature shift [1]: 2.03 °C

SUGT1 (UniProt Q9Y2Z0)
melting temperature shift [1]: -1.24 °C
melting temperature shift [2]: 0.797 °C

RAB3GAP1 (UniProt Q15042)
melting temperature shift [1]: -0.593 °C
melting temperature shift [2]: -0.296 °C

UniProt Q9BPU6
melting temperature shift [1]: -0.0197 °C
melting temperature shift [2]: -2.08 °C

DNMBP (UniProt Q6XZF7)
melting temperature shift [1]: 0.719 °C
melting temperature shift [2]: 0.598 °C

CCT4 (UniProt P50991)
melting temperature shift [1]: -0.161 °C
melting temperature shift [2]: -0.379 °C

LMNB1 (UniProt P20700)
melting temperature shift [2]: 1.64 °C

PRPF6 (UniProt O94906)
melting temperature shift [1]: -0.453 °C
melting temperature shift [2]: 0.318 °C

CS (UniProt O75390)
melting temperature shift [1]: 1.01 °C
melting temperature shift [2]: 0.124 °C

UniProt Q8N4N8
melting temperature shift [2]: -1.81 °C

RBM14 (UniProt Q96PK6)
melting temperature shift [1]: 0.21 °C
melting temperature shift [2]: -1.11 °C

DNAJC3 (UniProt Q13217)
melting temperature shift [1]: 0.348 °C
melting temperature shift [2]: 0.412 °C

MEMO1 (UniProt Q9Y316)
melting temperature shift [1]: -0.0142 °C
melting temperature shift [2]: -0.614 °C

TMX2 (UniProt Q9Y320)
melting temperature shift [1]: 1.73 °C
melting temperature shift [2]: -0.738 °C

UniProt Q14194
melting temperature shift [1]: 1.17 °C
melting temperature shift [2]: -0.137 °C

GBF1 (UniProt Q92538)
melting temperature shift [1]: -0.204 °C
melting temperature shift [2]: -0.126 °C

UniProt O60879
melting temperature shift [1]: -0.744 °C
melting temperature shift [2]: -0.0437 °C

NAA40 (UniProt Q86UY6)
melting temperature shift [1]: -0.423 °C
melting temperature shift [2]: 0.596 °C

UniProt Q9UJ98
melting temperature shift [2]: -2.23 °C

SLC7A11 (UniProt Q9UPY5)
melting temperature shift [2]: 2.52 °C

ILF3 (UniProt Q12906)
melting temperature shift [1]: 0.12 °C
melting temperature shift [2]: 0.259 °C

DLAT (UniProt P10515)
melting temperature shift [1]: 0.815 °C
melting temperature shift [2]: 0.239 °C

BICD2 (UniProt Q8TD16)
melting temperature shift [1]: -0.384 °C
melting temperature shift [2]: -0.0665 °C

SLTM (UniProt Q9NWH9)
melting temperature shift [1]: 0.973 °C
melting temperature shift [2]: 0.245 °C

JTB (UniProt O76095)
melting temperature shift [2]: 2.87 °C

SEC61B (UniProt P60468)
melting temperature shift [1]: 2.74 °C

RAP1A (UniProt P62834)
melting temperature shift [1]: -0.523 °C
melting temperature shift [2]: -2.85 °C

PRRC2C (UniProt Q9Y520)
melting temperature shift [1]: -0.0195 °C

SERPINB6 (UniProt P35237)
melting temperature shift [1]: -1.08 °C
melting temperature shift [2]: -0.377 °C

PHB (UniProt P35232)
melting temperature shift [1]: 2.78 °C
melting temperature shift [2]: 0.296 °C

NUDT2 (UniProt P50583)
melting temperature shift [1]: -0.627 °C
melting temperature shift [2]: -0.0498 °C

NFKBIB (UniProt Q15653)
melting temperature shift [1]: -0.555 °C
melting temperature shift [2]: -0.438 °C

TM9SF4 (UniProt Q92544)
melting temperature shift [1]: 0.884 °C
melting temperature shift [2]: -0.191 °C

UniProt Q5JUX0
melting temperature shift [2]: 0.0265 °C

OCRL (UniProt Q01968)
melting temperature shift [1]: -0.794 °C
melting temperature shift [2]: -0.169 °C

UniProt Q8NEY4
melting temperature shift [1]: 0.142 °C

TOE1 (UniProt Q96GM8)
melting temperature shift [1]: 0.157 °C
melting temperature shift [2]: 0.427 °C

CAP2 (UniProt P40123)
melting temperature shift [1]: -0.48 °C
melting temperature shift [2]: 0.26 °C

UniProt P37275
melting temperature shift [1]: 2.47 °C

TMEM223 (UniProt A0PJW6)
melting temperature shift [1]: 0.606 °C
melting temperature shift [2]: -1.05 °C

UniProt P23443
melting temperature shift [1]: -0.801 °C

OPA1 (UniProt O60313)
melting temperature shift [1]: 1.26 °C
melting temperature shift [2]: -1.3 °C

MRPL3 (UniProt P09001)
melting temperature shift [1]: -0.74 °C
melting temperature shift [2]: 0.235 °C

MORC2 (UniProt Q9Y6X9)
melting temperature shift [1]: -2.67 °C
melting temperature shift [2]: -3.39 °C

PAK4 (UniProt O96013)
melting temperature shift [1]: 0.171 °C
melting temperature shift [2]: -2.14 °C

UniProt O43462
melting temperature shift [2]: -2.45 °C

SPCS3 (UniProt P61009)
melting temperature shift [1]: 1.07 °C
melting temperature shift [2]: -0.128 °C

GBE1 (UniProt Q04446)
melting temperature shift [1]: -0.909 °C
melting temperature shift [2]: -0.499 °C

RPAP1 (UniProt Q9BWH6)
melting temperature shift [1]: -0.0298 °C
melting temperature shift [2]: -0.556 °C

UniProt Q96L14
melting temperature shift [2]: 1.27 °C

SMC4 (UniProt Q9NTJ3)
melting temperature shift [1]: -0.534 °C
melting temperature shift [2]: -1.02 °C

IGHMBP2 (UniProt P38935)
melting temperature shift [1]: -2.2 °C
melting temperature shift [2]: 0.242 °C

UniProt O00391
melting temperature shift [2]: 2.66 °C

RPS10 (UniProt P46783)
melting temperature shift [1]: -0.0898 °C
melting temperature shift [2]: -0.461 °C

DRG2 (UniProt P55039)
melting temperature shift [1]: -0.162 °C
melting temperature shift [2]: 0.492 °C

UniProt P69849
melting temperature shift [1]: 1.27 °C
melting temperature shift [2]: -0.762 °C

UniProt O76061
melting temperature shift [1]: -0.438 °C

UniProt Q9BV81
melting temperature shift [1]: 1.55 °C

CLPP (UniProt Q16740)
melting temperature shift [1]: 0.612 °C
melting temperature shift [2]: -0.276 °C

PHKB (UniProt Q93100)
melting temperature shift [1]: -0.997 °C

RANBP1 (UniProt P43487)
melting temperature shift [1]: -2.41 °C
melting temperature shift [2]: 0.00222 °C

UniProt P02787
melting temperature shift [1]: -2.51 °C

FAM114A2 (UniProt Q9NRY5)
melting temperature shift [1]: -0.192 °C
melting temperature shift [2]: -0.156 °C

RPS6KA1 (UniProt Q15418)
melting temperature shift [1]: -1.49 °C
melting temperature shift [2]: -0.292 °C

BTN2A1 (UniProt Q7KYR7)
melting temperature shift [1]: 0.589 °C
melting temperature shift [2]: 0.361 °C

CADM1 (UniProt Q9BY67)
melting temperature shift [1]: 4.33 °C

NNT (UniProt Q13423)
melting temperature shift [1]: 0.245 °C
melting temperature shift [2]: -0.313 °C

WDR13 (UniProt Q9H1Z4)
melting temperature shift [1]: -0.424 °C
melting temperature shift [2]: 0.00182 °C

RASA3 (UniProt Q14644)
melting temperature shift [1]: 2.58 °C
melting temperature shift [2]: -1.72 °C

A0A0U1RRE5, A0A0U1RRE5
melting temperature shift [1]: 2.3 °C
